No constants are given. Whether binding was seen depends on the method and setting. Binding seen in cells or lysates may run through a third protein. Here binding means that the protein was enriched with, or labelled near, the bait; the list need not be complete. For some assays here: A no says only that the protein was not detected with the bait.
Legend:
[1] = target: Hsp70 (human (endogenous in T24)); assay: affinity purification with mass spectrometry; co-immunoprecipitation with Hsp70 antibody on Dynabeads Protein G from lysate of T24 cells treated with VER155008 for 48 h; 10 min incubation; SDS-PAGE, silver stain, one band excised and identified by LC-MS/MS
[2] = target: Hsp70 (human (endogenous in T24)); assay: condition: only lysate of cells not treated with VER155008 (-VER, DMSO); affinity purification with mass spectrometry; co-immunoprecipitation with Hsp70 antibody on Dynabeads Protein G from lysate of T24 cells treated with DMSO (no VER155008) for 48 h; 10 min incubation; SDS-PAGE, silver stain; band judged by eye on the gel

binding [1]: binds | binding [2]: no binding
B1: keratin 9 (protein, UniProt P35527 1-623)
chain: MSCRQFSSSYLSRSGGGGGGGLGSGGSIRSSYSRFSSSGGGGGGGRFSSSSGYGGGSSRVCGRGGGGSFGYSYGGGSGGGFSASSLGGGFGGGSRGFGGASGGGYSSSGGFGGGFGGGSGGGFGGGYGSGFGGFGGFGGGAGGGDGGILTANEKSTMQELNSRLASYLDKVQALEEANNDLENKIQDWYDKKGPAAIQKNYSPYYNTIDDLKDQIVDLTVGNNKTLLDIDNTRMTLDDFRIKFEMEQNLRQGVDADINGLRQVLDNLTMEKSDLEMQYETLQEELMALKKNHKEEMSQLTGQNSGDVNVEINVAPGKDLTKTLNDMRQEYEQLIAKNRKDIENQYETQITQIEHEVSSSGQEVQSSAKEVTQLRHGVQELEIELQSQLSKKAALEKSLEDTKNRYCGQLQMIQEQISNLEAQITDVRQEIECQNQEYSLLLSIKMRLEKEIETYHNLLEGGQEDFESSGAGKIGLGGRGGSGGSYGRGSRGGSGGSYGGGGSGGGYGGGSGSRGGSGGSYGGGSGSGGGSGGGYGGGSGGGHSGGSGGGHSGGSGGNYGGGSGSGGGSGGGYGGGSGSRGGSGGSHGGGSGFGGESGGSYGGGEEASGSGGGYGGGSGKSSHS

— publication PMC6111075
